# Experimental data from the supplement of paper PMC11732987, “Enantioselective OTUD7B fragment discovery through chemoproteomics screening and high-throughput optimisation” (Communications Chemistry, 2025).
# Protein sequences, listed by entry. Tags and fused reporters are not part of them. Lines headed by an entry give the natural chain unless they say otherwise; changes in a name come on top. Residues count along the entry.
# UniProt Q96PU4: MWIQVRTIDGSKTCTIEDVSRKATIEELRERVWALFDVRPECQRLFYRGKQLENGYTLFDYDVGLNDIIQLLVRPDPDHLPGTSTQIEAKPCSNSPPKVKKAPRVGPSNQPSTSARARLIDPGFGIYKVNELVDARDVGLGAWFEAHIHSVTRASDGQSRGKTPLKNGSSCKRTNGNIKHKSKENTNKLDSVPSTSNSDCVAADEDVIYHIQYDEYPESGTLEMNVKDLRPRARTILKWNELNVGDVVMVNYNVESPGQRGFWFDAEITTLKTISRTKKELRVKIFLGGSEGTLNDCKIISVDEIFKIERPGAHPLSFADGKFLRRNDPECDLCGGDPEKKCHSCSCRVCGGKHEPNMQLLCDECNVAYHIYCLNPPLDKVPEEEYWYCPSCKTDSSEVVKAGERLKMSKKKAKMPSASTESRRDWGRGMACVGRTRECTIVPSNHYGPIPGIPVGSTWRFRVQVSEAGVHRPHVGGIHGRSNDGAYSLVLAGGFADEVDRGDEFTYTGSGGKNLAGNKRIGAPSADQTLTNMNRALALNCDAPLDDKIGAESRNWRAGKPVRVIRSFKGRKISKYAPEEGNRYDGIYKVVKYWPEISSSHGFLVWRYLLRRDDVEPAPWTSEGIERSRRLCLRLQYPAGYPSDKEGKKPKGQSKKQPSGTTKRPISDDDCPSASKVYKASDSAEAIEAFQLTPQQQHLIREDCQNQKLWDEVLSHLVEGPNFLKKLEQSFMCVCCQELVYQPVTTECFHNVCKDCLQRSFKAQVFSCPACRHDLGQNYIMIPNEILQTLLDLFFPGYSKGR
# UniProt Q9H270: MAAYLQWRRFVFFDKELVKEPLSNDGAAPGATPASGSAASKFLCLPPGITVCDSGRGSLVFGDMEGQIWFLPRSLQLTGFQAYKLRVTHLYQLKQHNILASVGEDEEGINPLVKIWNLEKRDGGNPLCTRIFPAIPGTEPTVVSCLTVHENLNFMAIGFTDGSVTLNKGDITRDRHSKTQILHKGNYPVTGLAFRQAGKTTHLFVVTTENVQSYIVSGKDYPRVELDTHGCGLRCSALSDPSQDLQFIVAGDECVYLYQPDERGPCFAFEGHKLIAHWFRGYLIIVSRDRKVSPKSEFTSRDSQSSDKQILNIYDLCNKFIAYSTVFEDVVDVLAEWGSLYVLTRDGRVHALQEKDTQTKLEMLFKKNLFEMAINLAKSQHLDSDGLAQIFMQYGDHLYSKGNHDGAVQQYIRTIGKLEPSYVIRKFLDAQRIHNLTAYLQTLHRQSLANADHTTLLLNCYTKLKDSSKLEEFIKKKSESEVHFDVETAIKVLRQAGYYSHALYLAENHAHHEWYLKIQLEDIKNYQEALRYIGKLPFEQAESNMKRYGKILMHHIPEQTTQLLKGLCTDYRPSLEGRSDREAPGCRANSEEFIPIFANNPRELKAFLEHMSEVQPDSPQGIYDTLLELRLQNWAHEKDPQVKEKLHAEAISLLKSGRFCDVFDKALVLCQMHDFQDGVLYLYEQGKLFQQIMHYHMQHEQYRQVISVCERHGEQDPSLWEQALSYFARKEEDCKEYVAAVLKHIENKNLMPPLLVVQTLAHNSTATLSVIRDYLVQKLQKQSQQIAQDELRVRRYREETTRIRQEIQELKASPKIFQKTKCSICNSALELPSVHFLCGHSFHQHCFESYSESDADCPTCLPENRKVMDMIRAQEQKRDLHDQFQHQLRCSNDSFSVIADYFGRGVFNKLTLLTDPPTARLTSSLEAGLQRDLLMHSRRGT
# UniProt P46939: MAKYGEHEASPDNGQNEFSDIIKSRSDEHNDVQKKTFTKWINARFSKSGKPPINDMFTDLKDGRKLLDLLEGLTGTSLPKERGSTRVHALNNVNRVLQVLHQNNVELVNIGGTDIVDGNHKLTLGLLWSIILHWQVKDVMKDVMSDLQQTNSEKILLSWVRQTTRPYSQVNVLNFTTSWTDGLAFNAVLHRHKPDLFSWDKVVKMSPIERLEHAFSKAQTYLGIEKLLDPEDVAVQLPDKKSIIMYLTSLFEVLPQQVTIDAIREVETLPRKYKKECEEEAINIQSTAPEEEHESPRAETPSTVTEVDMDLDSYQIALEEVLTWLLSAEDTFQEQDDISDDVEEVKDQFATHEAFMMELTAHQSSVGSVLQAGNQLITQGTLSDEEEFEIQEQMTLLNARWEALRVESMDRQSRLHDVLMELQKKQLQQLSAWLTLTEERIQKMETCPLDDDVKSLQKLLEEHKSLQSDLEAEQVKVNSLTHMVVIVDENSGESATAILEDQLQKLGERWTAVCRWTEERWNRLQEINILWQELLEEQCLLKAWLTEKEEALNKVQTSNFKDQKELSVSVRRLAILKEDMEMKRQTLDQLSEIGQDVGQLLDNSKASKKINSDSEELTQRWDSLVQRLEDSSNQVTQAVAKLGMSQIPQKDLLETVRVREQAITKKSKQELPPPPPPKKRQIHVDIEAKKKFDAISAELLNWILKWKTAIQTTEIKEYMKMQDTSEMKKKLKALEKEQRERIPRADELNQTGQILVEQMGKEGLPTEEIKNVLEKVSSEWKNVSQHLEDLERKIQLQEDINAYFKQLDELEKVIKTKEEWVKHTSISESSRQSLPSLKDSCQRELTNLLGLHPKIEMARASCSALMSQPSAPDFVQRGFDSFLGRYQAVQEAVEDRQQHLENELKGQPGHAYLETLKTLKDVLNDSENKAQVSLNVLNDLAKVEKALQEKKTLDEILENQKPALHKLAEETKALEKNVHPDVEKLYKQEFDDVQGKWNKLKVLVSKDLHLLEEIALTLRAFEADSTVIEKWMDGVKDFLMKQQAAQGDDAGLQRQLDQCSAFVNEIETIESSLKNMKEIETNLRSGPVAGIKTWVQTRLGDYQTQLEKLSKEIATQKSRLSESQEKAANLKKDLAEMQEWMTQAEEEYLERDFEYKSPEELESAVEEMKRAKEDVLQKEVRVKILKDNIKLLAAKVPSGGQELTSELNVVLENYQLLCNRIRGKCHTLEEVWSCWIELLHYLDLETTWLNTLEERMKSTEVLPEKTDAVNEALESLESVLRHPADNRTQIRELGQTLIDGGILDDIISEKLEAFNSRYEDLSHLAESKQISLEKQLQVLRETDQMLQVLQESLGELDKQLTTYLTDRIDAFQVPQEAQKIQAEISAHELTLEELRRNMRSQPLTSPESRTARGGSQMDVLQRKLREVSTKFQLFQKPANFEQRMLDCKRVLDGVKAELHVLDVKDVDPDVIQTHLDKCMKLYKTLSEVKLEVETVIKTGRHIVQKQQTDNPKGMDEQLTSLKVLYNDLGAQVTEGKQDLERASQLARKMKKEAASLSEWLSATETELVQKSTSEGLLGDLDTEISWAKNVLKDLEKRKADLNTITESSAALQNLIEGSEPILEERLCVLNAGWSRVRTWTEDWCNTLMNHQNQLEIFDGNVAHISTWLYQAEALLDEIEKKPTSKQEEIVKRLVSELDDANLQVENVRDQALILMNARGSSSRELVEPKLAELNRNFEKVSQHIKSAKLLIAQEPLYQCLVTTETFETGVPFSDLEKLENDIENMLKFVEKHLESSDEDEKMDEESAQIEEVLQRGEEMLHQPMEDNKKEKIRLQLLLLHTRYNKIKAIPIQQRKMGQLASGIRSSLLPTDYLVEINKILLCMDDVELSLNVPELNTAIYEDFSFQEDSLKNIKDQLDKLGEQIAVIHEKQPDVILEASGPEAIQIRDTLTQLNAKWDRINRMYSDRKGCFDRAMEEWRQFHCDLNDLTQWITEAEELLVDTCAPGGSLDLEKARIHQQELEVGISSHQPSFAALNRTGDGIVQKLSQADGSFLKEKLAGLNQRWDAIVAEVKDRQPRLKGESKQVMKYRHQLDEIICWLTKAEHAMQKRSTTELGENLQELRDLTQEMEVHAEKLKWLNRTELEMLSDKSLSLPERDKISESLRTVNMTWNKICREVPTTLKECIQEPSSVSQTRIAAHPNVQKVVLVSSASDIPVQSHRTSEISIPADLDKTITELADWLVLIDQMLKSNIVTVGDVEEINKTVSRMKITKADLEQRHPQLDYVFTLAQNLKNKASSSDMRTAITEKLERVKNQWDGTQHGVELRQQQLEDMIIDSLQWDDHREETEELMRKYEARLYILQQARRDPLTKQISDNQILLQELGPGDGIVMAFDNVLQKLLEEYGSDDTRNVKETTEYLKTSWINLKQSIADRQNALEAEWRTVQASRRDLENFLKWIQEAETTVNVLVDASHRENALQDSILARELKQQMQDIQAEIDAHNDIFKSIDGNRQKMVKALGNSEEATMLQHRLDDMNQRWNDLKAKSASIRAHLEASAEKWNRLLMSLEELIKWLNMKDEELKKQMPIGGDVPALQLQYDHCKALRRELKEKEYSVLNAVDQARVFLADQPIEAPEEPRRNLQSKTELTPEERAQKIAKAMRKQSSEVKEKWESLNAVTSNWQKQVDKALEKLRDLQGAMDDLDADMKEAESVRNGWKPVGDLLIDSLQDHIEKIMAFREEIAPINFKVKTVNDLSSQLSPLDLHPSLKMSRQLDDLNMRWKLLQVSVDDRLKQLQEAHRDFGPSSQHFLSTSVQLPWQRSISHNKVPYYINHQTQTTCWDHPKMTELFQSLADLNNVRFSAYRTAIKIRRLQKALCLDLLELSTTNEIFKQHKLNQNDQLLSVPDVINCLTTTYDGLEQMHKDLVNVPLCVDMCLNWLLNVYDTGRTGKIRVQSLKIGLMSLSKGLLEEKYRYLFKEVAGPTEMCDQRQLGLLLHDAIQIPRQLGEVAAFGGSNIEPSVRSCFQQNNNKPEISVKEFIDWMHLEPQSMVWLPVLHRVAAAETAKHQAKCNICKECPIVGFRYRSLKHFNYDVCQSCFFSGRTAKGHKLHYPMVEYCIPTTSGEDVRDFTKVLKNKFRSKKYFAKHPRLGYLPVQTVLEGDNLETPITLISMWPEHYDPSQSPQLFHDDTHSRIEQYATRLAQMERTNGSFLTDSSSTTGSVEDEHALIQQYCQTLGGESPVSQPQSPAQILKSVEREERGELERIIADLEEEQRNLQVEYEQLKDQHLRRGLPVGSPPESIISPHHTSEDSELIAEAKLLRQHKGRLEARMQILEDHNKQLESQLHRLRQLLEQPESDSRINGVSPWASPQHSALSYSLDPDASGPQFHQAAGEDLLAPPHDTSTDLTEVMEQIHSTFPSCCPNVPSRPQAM
# UniProt Q9BRU9: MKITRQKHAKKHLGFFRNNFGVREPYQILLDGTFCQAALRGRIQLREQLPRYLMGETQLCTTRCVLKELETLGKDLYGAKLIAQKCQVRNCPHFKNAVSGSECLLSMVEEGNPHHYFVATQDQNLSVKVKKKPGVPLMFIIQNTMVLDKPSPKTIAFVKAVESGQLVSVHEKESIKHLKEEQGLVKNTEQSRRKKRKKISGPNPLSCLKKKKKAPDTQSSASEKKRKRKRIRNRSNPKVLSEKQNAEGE
# UniProt Q96T88: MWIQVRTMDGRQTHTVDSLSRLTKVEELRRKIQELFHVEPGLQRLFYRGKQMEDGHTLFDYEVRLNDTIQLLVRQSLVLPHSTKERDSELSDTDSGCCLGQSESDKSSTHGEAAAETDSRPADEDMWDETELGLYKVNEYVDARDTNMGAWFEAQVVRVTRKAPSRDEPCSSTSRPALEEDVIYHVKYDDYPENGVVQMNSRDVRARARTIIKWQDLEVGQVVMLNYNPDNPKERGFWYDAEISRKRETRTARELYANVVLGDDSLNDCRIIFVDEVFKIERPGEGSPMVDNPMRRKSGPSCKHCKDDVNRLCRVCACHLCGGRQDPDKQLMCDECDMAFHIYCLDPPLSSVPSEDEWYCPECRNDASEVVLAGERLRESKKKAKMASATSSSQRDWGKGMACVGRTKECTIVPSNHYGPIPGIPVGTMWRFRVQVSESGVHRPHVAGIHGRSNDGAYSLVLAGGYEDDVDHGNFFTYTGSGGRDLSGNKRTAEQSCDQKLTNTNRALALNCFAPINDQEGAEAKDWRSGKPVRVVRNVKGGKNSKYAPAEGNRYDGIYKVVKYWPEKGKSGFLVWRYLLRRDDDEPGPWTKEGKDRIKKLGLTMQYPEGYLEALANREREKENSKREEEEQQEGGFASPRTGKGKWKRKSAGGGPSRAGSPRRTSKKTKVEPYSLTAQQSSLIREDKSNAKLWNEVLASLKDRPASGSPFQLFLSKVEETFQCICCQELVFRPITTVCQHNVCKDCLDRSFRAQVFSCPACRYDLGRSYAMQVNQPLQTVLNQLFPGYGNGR
# UniProt O95292, whole entry, looked up: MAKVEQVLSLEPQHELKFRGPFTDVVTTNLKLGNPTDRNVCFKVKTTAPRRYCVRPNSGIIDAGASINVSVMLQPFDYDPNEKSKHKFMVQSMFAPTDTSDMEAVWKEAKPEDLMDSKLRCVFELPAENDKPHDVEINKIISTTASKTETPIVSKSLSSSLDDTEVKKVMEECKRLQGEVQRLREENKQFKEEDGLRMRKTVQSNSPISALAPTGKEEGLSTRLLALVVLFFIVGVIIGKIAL
# UniProt O94763, 414-435: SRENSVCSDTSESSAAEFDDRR
# Some of the results follow. The data scatter; read single values as rough.
# Compound: ClCC(=O)N[C@@H]1CCCc2ccccc12
# Assay: log2 mean competition ratio of IA-DTB cysteine labelling (DMSO/compound) (log2 ratio); higher = stronger cysteine engagement by compound
# Conditions: 50 µM; treatment time: 4 h; cell line lysate: HEK293T
# Protocol: (§1)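 IA-DTB competitive cysteine chemoproteomics in HEK293T RIPA lysate. Lysates were treated with compound 29 or 30 at 50 or 200 µM for 4 h, then IA-DTB (500 µM, 1 h), trypsin-digested, NeutrAvidin-enriched and analysed by diaPASEF. Competition ratio = intensity DMSO / intensity compound (n=4 treated, n=64 DMSO); binding: mean log2 CR ≥ 1 and p ≤ 0.05 plus QC filters. Target is the cysteine site.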
row,Target,log2 mean competition ratio
1,USP16 C24 (UniProt Q9Y5T5),-0.251
2,USP3 C362 (UniProt Q9Y6I4),-0.0208
3,USP9X C1061 (UniProt Q93008),0.36
4,UTP20 C1384 (UniProt O75691),-0.0417
5,UTP20 C345 (UniProt O75691),-0.13
6,UHRF2 C432 (UniProt Q96PU4),0.161
7,VPS11 C231 (UniProt Q9H270),0.236
8,VARS1 C917,-0.112
9,USP16 C618 (UniProt Q9Y5T5),-0.0158
10,VDAC2 C76,0.323
11,VHL C77 (UniProt P40337),0.163
12,USP47 C856 (UniProt Q96K76),-0.0758
13,UTRN C2986 (UniProt P46939),0.128
14,UPF1 C213 (UniProt Q92900),-0.168
15,USP32 C1183 (UniProt Q8NFA0),-0.117
16,USP11 C894 (UniProt P51784),-0.186
17,UTP20 C1794 (UniProt O75691),0.137
18,UTP23 C207 (UniProt Q9BRU9),0.11
19,URB1 C473 (UniProt O60287),-0.216

row,Target,log2 mean competition ratio
1,UNC45A C503 (UniProt Q9H3U1),0.199
2,UFSP2 C302 (UniProt Q9NUQ7),-0.201
3,USP3 C385 (UniProt Q9Y6I4),0.328
4,UTP18 C241 (UniProt Q9Y5J1),0.381
5,UHRF1 C305 (UniProt Q96T88),-0.17
6,USP24 C873 (UniProt Q9UPU5),0.742
7,UBR5 C730 (UniProt O95071),-0.0515
8,VLDLR C318 (UniProt P98155),-0.155
9,VPS13C C2184 (UniProt Q709C8),-0.0848
10,UBR5 C1291 (UniProt O95071),-0.116
11,URB2 C702 (UniProt Q14146),-0.00645
12,VAPB C173 (UniProt O95292),0.0357
13,USP9X C864 (UniProt Q93008),-0.0192
14,USP9X C1237 (UniProt Q93008),0.0599
15,VPS18 C421 (UniProt Q9P253),0.485
16,USP46 C222 (UniProt P62068),-0.132
17,USP53 C380,0.126
18,USP22 C171 (UniProt Q9UPT9),0.13
19,URI1 C420 (UniProt O94763),0.0829

# Same assay, conditions: 200 µM; treatment time: 4 h; cell line lysate: HEK293T
row,Target,log2 mean competition ratio
1,USP16 C24 (UniProt Q9Y5T5),-0.0943
2,USP3 C362 (UniProt Q9Y6I4),0.252
3,USP9X C1061 (UniProt Q93008),-0.19
4,UTP20 C1384 (UniProt O75691),-0.658
5,UTP20 C345 (UniProt O75691),0.138
6,UHRF2 C432 (UniProt Q96PU4),0.156
7,VPS11 C231 (UniProt Q9H270),0.129
8,VARS1 C917,-0.119
9,USP16 C618 (UniProt Q9Y5T5),-0.00289
10,VDAC2 C76,-0.233
11,VHL C77 (UniProt P40337),-0.205
12,USP47 C856 (UniProt Q96K76),0.127
13,UTRN C2986 (UniProt P46939),0.0345
14,UPF1 C213 (UniProt Q92900),0.2
15,USP32 C1183 (UniProt Q8NFA0),0.25
16,USP11 C894 (UniProt P51784),0.0591
17,UTP20 C1794 (UniProt O75691),-0.242
18,UTP23 C207 (UniProt Q9BRU9),-0.359
19,URB1 C473 (UniProt O60287),0.0154

row,Target,log2 mean competition ratio
1,UNC45A C503 (UniProt Q9H3U1),0.163
2,UFSP2 C302 (UniProt Q9NUQ7),-0.299
3,USP3 C385 (UniProt Q9Y6I4),0.0536
4,UTP18 C241 (UniProt Q9Y5J1),-0.386
5,UHRF1 C305 (UniProt Q96T88),0.0876
6,USP24 C873 (UniProt Q9UPU5),0.179
7,UBR5 C730 (UniProt O95071),0.254
8,VLDLR C318 (UniProt P98155),0.378
9,VPS13C C2184 (UniProt Q709C8),-0.0956
10,UBR5 C1291 (UniProt O95071),-0.403
11,URB2 C702 (UniProt Q14146),-0.421
12,VAPB C173 (UniProt O95292),-0.124
13,USP9X C864 (UniProt Q93008),-0.156
14,USP9X C1237 (UniProt Q93008),0.23
15,VPS18 C421 (UniProt Q9P253),0.176
16,USP46 C222 (UniProt P62068),-0.436
17,USP53 C380,-0.151
18,USP22 C171 (UniProt Q9UPT9),0.214
19,URI1 C420 (UniProt O94763),0.235

# Compound: ClCC(=O)N[C@H]1CCCc2ccccc12
# Assay: as above
# Conditions: 50 µM; treatment time: 4 h; cell line lysate: HEK293T
# Protocol: as §1
row,Target,log2 mean competition ratio
1,USP16 C24 (UniProt Q9Y5T5),0.252
2,USP3 C362 (UniProt Q9Y6I4),0.278
3,USP9X C1061 (UniProt Q93008),0.634
4,UTP20 C1384 (UniProt O75691),-0.506
5,UTP20 C345 (UniProt O75691),-0.385
6,UHRF2 C432 (UniProt Q96PU4),0.36
7,VPS11 C231 (UniProt Q9H270),-0.323
8,VARS1 C917,-0.24
9,USP16 C618 (UniProt Q9Y5T5),0.0848
10,VDAC2 C76,0.0597
11,VHL C77 (UniProt P40337),0.351
12,USP47 C856 (UniProt Q96K76),-0.0849
13,UTRN C2986 (UniProt P46939),0.388
14,UPF1 C213 (UniProt Q92900),-0.176
15,USP32 C1183 (UniProt Q8NFA0),-0.483
16,USP11 C894 (UniProt P51784),0.00738
17,UTP20 C1794 (UniProt O75691),0.129
18,UTP23 C207 (UniProt Q9BRU9),0.396
19,URB1 C473 (UniProt O60287),-0.137

row,Target,log2 mean competition ratio
1,UNC45A C503 (UniProt Q9H3U1),0.432
2,UFSP2 C302 (UniProt Q9NUQ7),0.0787
3,USP3 C385 (UniProt Q9Y6I4),0.657
4,UTP18 C241 (UniProt Q9Y5J1),0.367
5,UHRF1 C305 (UniProt Q96T88),-0.167
6,USP24 C873 (UniProt Q9UPU5),0.623
7,UBR5 C730 (UniProt O95071),-0.171
8,VLDLR C318 (UniProt P98155),0.2
9,VPS13C C2184 (UniProt Q709C8),0.118
10,UBR5 C1291 (UniProt O95071),-0.16
11,URB2 C702 (UniProt Q14146),-0.131
12,VAPB C173 (UniProt O95292),-0.0882
13,USP9X C864 (UniProt Q93008),-0.294
14,USP9X C1237 (UniProt Q93008),-0.248
15,VPS18 C421 (UniProt Q9P253),0.242
16,USP46 C222 (UniProt P62068),-0.257
17,USP53 C380,-0.228
18,USP22 C171 (UniProt Q9UPT9),0.046
19,URI1 C420 (UniProt O94763),-0.14
